The data set in a line: Endogenous plasma levels of kinin peptides in healthy volunteers (LC-MS/MS). Details: species or system human. Conditions: three healthy volunteers (2 men, 1 person), EDTA S-Monovettes prespiked with protease inhibitor.

By UniProt entry, the sequences of proteins in these tests, tags left out. Where a name states a change or a piece, a line headed by the entry shows the natural chain unless it says otherwise.
UniProt P01042: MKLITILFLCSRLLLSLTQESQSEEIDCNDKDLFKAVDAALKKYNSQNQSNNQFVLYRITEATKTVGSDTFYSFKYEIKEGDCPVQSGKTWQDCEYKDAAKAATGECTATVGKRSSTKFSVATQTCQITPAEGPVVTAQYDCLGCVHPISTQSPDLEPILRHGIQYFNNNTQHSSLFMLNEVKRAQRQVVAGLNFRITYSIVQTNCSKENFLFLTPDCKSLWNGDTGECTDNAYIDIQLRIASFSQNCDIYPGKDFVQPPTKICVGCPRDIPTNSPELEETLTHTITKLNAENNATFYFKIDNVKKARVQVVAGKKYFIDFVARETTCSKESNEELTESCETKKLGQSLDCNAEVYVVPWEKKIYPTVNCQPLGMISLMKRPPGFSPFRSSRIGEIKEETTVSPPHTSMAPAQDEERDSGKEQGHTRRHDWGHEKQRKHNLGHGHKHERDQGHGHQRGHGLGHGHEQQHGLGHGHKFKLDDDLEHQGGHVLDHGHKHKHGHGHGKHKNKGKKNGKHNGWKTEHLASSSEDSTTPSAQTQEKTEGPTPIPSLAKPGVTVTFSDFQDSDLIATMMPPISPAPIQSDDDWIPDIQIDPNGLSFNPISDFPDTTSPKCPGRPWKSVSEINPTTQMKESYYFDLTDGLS

This is an account of results in PMC7946403, “Targeted LC-MS/MS platform for the comprehensive determination of peptides in the kallikrein-kinin system” (Analytical and Bioanalytical Chemistry, 2021).

With “bradykinin 1-5 (RPPGF; Bradykinin; UniProt P01042 381-385, looked up, fragment)”, the Endogenous plasma levels entry is “below the quantification limit”. As for “bradykinin 1-7 (RPPGFSP; Bradykinin; UniProt P01042 381-387, looked up, fragment)”, the Endogenous plasma levels result was “below the quantification limit”. “bradykinin 2-9 (PPGFSPFR; Bradykinin; UniProt P01042 382-389, looked up, fragment) [major metabolite of bradykinin]”: the Endogenous plasma levels result is “below the quantification limit”. With Kallidin, the Endogenous plasma levels entry is listed as “below the quantification limit”.
